From PMC11822377

Protein sequences, listed by entry. Tags and fused reporters are not part of them. Lines headed by an entry give the natural chain unless they say otherwise; changes in a name come on top.
UniProt Q23096: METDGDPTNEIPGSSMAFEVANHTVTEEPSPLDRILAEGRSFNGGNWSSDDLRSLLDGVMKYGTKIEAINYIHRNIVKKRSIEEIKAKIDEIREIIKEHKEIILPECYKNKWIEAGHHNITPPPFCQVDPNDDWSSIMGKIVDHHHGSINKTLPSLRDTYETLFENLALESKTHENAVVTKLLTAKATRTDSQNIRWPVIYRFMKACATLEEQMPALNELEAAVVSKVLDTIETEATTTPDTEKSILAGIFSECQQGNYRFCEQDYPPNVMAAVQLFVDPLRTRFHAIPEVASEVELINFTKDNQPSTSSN
UniProt A0A0K3AR81: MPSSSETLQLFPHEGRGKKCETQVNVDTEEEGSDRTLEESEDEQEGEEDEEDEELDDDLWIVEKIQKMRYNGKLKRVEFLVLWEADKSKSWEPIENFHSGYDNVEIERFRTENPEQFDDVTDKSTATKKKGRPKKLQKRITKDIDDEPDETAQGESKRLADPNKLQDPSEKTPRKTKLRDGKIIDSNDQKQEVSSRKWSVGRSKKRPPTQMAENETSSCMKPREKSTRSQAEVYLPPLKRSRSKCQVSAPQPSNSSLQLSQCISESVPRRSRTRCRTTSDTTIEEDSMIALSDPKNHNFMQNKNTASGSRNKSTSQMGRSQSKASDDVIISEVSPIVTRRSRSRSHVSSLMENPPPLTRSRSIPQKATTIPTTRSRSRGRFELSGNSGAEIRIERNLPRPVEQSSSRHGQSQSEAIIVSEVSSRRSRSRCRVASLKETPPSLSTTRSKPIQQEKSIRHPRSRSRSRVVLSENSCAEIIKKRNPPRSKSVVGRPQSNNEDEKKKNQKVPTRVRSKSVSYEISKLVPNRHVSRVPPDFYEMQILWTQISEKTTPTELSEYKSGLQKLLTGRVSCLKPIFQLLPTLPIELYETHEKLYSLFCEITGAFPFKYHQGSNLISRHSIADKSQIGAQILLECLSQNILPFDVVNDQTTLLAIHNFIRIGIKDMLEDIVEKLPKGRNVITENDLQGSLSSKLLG

T1: TurboID::PRDE-1 (C. elegans) (UniProt O17828)
T1 sequence: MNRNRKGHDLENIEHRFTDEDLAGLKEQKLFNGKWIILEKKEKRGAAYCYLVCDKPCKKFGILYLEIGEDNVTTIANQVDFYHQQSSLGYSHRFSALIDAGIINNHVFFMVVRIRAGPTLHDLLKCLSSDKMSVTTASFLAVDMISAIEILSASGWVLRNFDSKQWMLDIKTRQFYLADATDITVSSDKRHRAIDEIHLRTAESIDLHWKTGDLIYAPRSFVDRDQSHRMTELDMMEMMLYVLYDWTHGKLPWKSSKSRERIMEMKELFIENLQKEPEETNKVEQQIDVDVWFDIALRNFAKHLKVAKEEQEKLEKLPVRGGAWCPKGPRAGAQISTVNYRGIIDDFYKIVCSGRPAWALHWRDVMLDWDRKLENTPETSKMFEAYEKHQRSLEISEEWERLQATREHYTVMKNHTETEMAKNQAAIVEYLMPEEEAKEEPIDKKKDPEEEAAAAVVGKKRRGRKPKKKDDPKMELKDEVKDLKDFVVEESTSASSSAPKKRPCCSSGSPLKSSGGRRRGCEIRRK


Target: T1, TurboID::PRDE-1 (C. elegans)
Test: proximity labelling; TurboID::PRDE-1 biotinylates nearby proteins in vivo in adult C. elegans (20°C); lysate in RIPA buffer, streptavidin magnetic beads overnight at 4°C, stringent washes (1 M KCl, 0.1 M Na2CO3, 2 M urea), on-bead trypsin digestion, mass spectrometry; compared with untagged N2

| Molecule | binding |
| --- | --- |
| TOFU-4 (C. elegans (endogenous in adult animals)) | binds |
| TAG-72 (protein, UniProt Q9XVS1 1-380) MSSSEVASHYNKVLQVGIEGRKESRIFFMRNMNNWVKSQLINDAKQRVNDNGVNNPRVLDLACGKGGDLKKWDIAGAKDVVMADVADVSIQQAEERYKQMFGYKKNNIFTVQFIVADCTKENLEDRIENKDPFDLVSCQFALHYSFVDEASARIFLKNAVGMLKPGGVFIGTLPDADRIVWSMRNGENGQFANEVCKITYENVEELAEGKVPLFGAKFHFSLDEQVNCPEFLAYFPLVKHLLEELDMELLFVHNFAEAINKWLEPGRRLLESMTGLETYPNEKLSGKSDDEYLEAKAKLDAFPEDERIKTMGTLSKSEWEAICMYLVFGFRKKKSEAEKTEEEPATTKPVAESESEQKEVTESEEKEDQEDCEHQEAQTN | binds |

Further lines, results first:

| binding | Molecule |
| --- | --- |
| binds | TOFU-5 (from UniProt Q23096) |
| binds | chromodomain protein UAD-2 (from UniProt A0A0K3AR81 1-696) |

Results are given in words; binding and its absence hold for the method and conditions named. Binding seen in cells or lysates may run through a third protein. A yes stands for co-enrichment or nearness to the bait. Other partners may have been found. Where a sequence is shown, tags or fusion partners need not be part of it.
